# Data published in publication PMC7819943, “Rice protein-binding microarrays: a tool to detect cis-acting elements near promoter regions in rice”.
# Sequences of proteins named here, by UniProt entry; tags and fusion partners are left off.
# UniProt Q0JBA9, entry or part of it: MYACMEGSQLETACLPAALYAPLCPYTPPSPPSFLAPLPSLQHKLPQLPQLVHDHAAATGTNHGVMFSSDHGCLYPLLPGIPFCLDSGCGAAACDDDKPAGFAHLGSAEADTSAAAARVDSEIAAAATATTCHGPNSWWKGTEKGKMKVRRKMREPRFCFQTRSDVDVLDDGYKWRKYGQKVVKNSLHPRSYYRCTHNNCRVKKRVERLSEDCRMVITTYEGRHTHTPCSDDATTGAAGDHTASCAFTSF
# The list shows a part of the results.
# Molecular target: OsWRKY34 (Oryza sativa, UniProt Q0JBA9 1-250)
# Assay: protein-binding microarray (RPBM); PBS, 2% BSA, 51.3 ng/ul salmon testes DNA, 50 uM zinc acetate, 200 nM TF, 25 C, 1 h; high values mean tight binding
# Details: protein: recombinant; tags: N-terminal polyhistidine and DsRed monomer fusion (pET32a); label: CyDye5-dUTP incorporated in the synthesized complementary strand; 3' TTTTT single-stranded linker to array surface; dsDNA, one strand shown
# Method in brief: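 Transcription factors, each fused N-terminally to a polyhistidine tag and DsRed, were expressed in E. coli BL21-CodonPlus and purified on Ni–NTA. A custom Agilent array was made double-stranded by primer extension with Cy5-dUTP and blocked with 2% BSA. It was incubated with 200 nM protein in PBS, 2% BSA, salmon testes DNA and 50 µM zinc acetate at 25 °C for 1 h, then washed. The binding signal is per-feature fluorescence intensity (arbitrary units) read on an Axon 4000B scanner.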
row,Sequence,binding signal
1,AGATGTTTCCGCTGATACTTTGATACGTCGTCCTTATTTGCGGAGTCACCTAGTGCAG,10800 fluorescence intensity (a.u.)
2,TTAACCCTTTATTCCTTTTTTCTTTTTACATACCCCTCGGCGGAGTCACCTAGTGCAG,8250 fluorescence intensity (a.u.)
3,GACCGGCAACTTTCTTGTTCTACGTGAGCACATTTCCCGACGGAGTCACCTAGTGCAG,9000 fluorescence intensity (a.u.)
4,GATTTCTTATCCTTCTTCTTGTTGCTAATCTCGATCGATCCGGAGTCACCTAGTGCAG,12700 fluorescence intensity (a.u.)
5,TCTCATTGGCCGGAACAAGTCACGCCACGCCCGTTTCCTCCGGAGTCACCTAGTGCAG,8150 fluorescence intensity (a.u.)
6,TTAATATGTAGCTTATGTTTTGTGGGTAGTATAGGTATATCGGAGTCACCTAGTGCAG,9300 fluorescence intensity (a.u.)
7,GCACACGTTGTACTACAACCCTAGCAGTCAGCTCTGCTTTCGGAGTCACCTAGTGCAG,8960 fluorescence intensity (a.u.)
8,CGCTACTCATACGATCCCGCTTGTCTCTCGGCTTCAACCTCGGAGTCACCTAGTGCAG,11200 fluorescence intensity (a.u.)
9,ATTCAAGGAGTTGTTCAAAGCTACCAATGGCTTTGTTGACCGGAGTCACCTAGTGCAG,8080 fluorescence intensity (a.u.)
10,AATTAGTTTTGATGATCCACTGATGAATCAGTTTCTTATTCGGAGTCACCTAGTGCAG,8430 fluorescence intensity (a.u.)
11,TTGGTTCTTGCTTGTGTGAGAGGATTCGTTGTTCTTATAACGGAGTCACCTAGTGCAG,8610 fluorescence intensity (a.u.)
12,ATCATGTGGGATGGATCCTATTACTCAGCTATATGTTGTCCGGAGTCACCTAGTGCAG,8350 fluorescence intensity (a.u.)
13,AAGCATCATCACTGTCGCTGTCATCAATCATTGTCACTTACGGAGTCACCTAGTGCAG,9590 fluorescence intensity (a.u.)
14,CACGTTCAACGTTTGACCACTCGTCTTATTTAAAATTTTTCGGAGTCACCTAGTGCAG,9360 fluorescence intensity (a.u.)
15,TTAGCTGCAGTACTTTTGCACAAACGCCTCATCTACTGTGCGGAGTCACCTAGTGCAG,8780 fluorescence intensity (a.u.)
16,AATCATCATGGTCATTATCACTTAAGCTCAAAACTTAATTCGGAGTCACCTAGTGCAG,8400 fluorescence intensity (a.u.)
17,TCCCATTTTGCCCCTACGCTCGCCCACCTATCTTACCACTCGGAGTCACCTAGTGCAG,12600 fluorescence intensity (a.u.)
18,ACACACCACCGCGACACATCGCACGCATCATTCTGAATTTCGGAGTCACCTAGTGCAG,8820 fluorescence intensity (a.u.)
19,GCTCCTTTCCAGATTGTCCAGCATGCCACTGCCCCAGATACGGAGTCACCTAGTGCAG,9380 fluorescence intensity (a.u.)
20,CTTTCTGTTAGGCCCCACCTGTCGGTGAGACAGCGCGGAGCGGAGTCACCTAGTGCAG,8940 fluorescence intensity (a.u.)
21,TGCTCTATAAATACCAGCTTCCTCTTGCCTCTCAACCCATCGGAGTCACCTAGTGCAG,8530 fluorescence intensity (a.u.)

row,Sequence,binding signal
1,CTTCCGTGTTTGGTTTCCGATGTGATTTCGGGGCCGGTTTCGGAGTCACCTAGTGCAG,10900 fluorescence intensity (a.u.)
2,TAATCTTTGTTTGGCCCTTGTTAAAGGAGATGTTAATTCTCGGAGTCACCTAGTGCAG,8180 fluorescence intensity (a.u.)
3,ATTCTTTGCTTTTATCCCCTTGTGCTGTTCTCTCCTTGATCGGAGTCACCTAGTGCAG,11700 fluorescence intensity (a.u.)
4,ATGCTTCTTCATGAGCTTGTCATTGCCATCTTACATTTCTCGGAGTCACCTAGTGCAG,9750 fluorescence intensity (a.u.)
5,ACACTGGATGTCTCGTTATCGATTTCTCGATCTCTCCACGCGGAGTCACCTAGTGCAG,10400 fluorescence intensity (a.u.)
6,AGCTTTTCCCCGCCGACCGACACCCTTCTTCTCACCCATTCGGAGTCACCTAGTGCAG,8950 fluorescence intensity (a.u.)
7,GGCTACCGTCGCGCCGCCACCGCGCCACTGCGTCGTCACCCGGAGTCACCTAGTGCAG,8620 fluorescence intensity (a.u.)
8,TCTCCGAGCGCTTATTTATTACTAACTTGACCAATCAAGCCGGAGTCACCTAGTGCAG,8770 fluorescence intensity (a.u.)
9,ATATAAGCGATTTTGAGTTTTTGTTTGCGCTATTTGACCACGGAGTCACCTAGTGCAG,10000 fluorescence intensity (a.u.)
10,GTCCCACGCAACCAATCAACCAATTTCCCGCGCGCTGTCACGGAGTCACCTAGTGCAG,8280 fluorescence intensity (a.u.)
11,ACTGCGTGACAGCCACCGTTATTAGCACGTCAACGACTGACGGAGTCACCTAGTGCAG,8390 fluorescence intensity (a.u.)
12,TGTGCCACGTTGGTCCCGTGCTAAACTTTTTTCCGTTTTGCGGAGTCACCTAGTGCAG,8540 fluorescence intensity (a.u.)
13,AACTTCTAACTTTTCCATTACATCGTTTCAATTTTAACCACGGAGTCACCTAGTGCAG,9420 fluorescence intensity (a.u.)
14,GAAAGGTAGTACACACGCACCCCGACCACTCCCACTATTTCGGAGTCACCTAGTGCAG,8020 fluorescence intensity (a.u.)
15,GGTTGTTTTCTTCGCTCAATGTTCCCAACCTCTGCCTCTCCGGAGTCACCTAGTGCAG,10000 fluorescence intensity (a.u.)
16,TATATATATATATATATATATATATATATATATATATATCCGGAGTCACCTAGTGCAG,8650 fluorescence intensity (a.u.)
17,CCCCTGCTGCGTGCTGCCGGCCGCCGTAAAATACAGCACTCGGAGTCACCTAGTGCAG,9220 fluorescence intensity (a.u.)
18,TGGATTAGCGCCCGTCGTCCCACTCCTTTTCCATCGCGCTCGGAGTCACCTAGTGCAG,11300 fluorescence intensity (a.u.)
19,TCCTCTTGCAATCATTCACTCTCCTTGCTCGATTCTATAACGGAGTCACCTAGTGCAG,11300 fluorescence intensity (a.u.)
20,CTCTCTCTCCCGTTGGCGGCTTGCGCGCGCGCTTCCAGCCCGGAGTCACCTAGTGCAG,10100 fluorescence intensity (a.u.)
21,GTATATCACCACTCACCTACACATCTTGGTCATACACTTCCGGAGTCACCTAGTGCAG,13400 fluorescence intensity (a.u.)

row,Sequence,binding signal
1,CATGCTATAGATTAGGGCCTCGTTTAGTTCCCAATTTTTTCGGAGTCACCTAGTGCAG,8660 fluorescence intensity (a.u.)
2,AACTTTTTTACTGTCAACTTTACCTGATATATATATTACTCGGAGTCACCTAGTGCAG,8260 fluorescence intensity (a.u.)
3,TGCTGTGTATTGATGTATGGTCCTATGTTAGGTTAATTTACGGAGTCACCTAGTGCAG,9570 fluorescence intensity (a.u.)
4,ATTCCCAATCTTCTCAATCACCTCTCTCTCTCTCAAAAACCGGAGTCACCTAGTGCAG,8810 fluorescence intensity (a.u.)
5,GCCGCCGCCTTGCTCAGTTGCTCGTCGTCCTCCGCCGCCGCGGAGTCACCTAGTGCAG,9030 fluorescence intensity (a.u.)
6,GGCATGGCTATATTTTCTTTCCAACTTTGCTCAATGTTTTCGGAGTCACCTAGTGCAG,8570 fluorescence intensity (a.u.)
7,CACCCAGTTCTTTTGTTCTTCCTATTCTGCATTTACTTTTCGGAGTCACCTAGTGCAG,13200 fluorescence intensity (a.u.)
8,GGGCCGTCCCGTCCTGTATCTTCCTTCATCTTCTTGCCATCGGAGTCACCTAGTGCAG,9630 fluorescence intensity (a.u.)
9,ATTTCCGACCGGTCATATTCATTTGTCAACCTGATTGTACCGGAGTCACCTAGTGCAG,11100 fluorescence intensity (a.u.)
10,AAGGGTGGGCGTGATGGAGTTTGGATGGGCCCTGCGACGGCGGAGTCACCTAGTGCAG,9160 fluorescence intensity (a.u.)
11,TCGGTGTTTGGTTAGTTGAGCTGTTCTGGTCATTCTGGGCCGGAGTCACCTAGTGCAG,9520 fluorescence intensity (a.u.)
12,CATGTTCTGTTTTGGCAATCCTTTTTTAGAGCGACTGGCGCGGAGTCACCTAGTGCAG,8360 fluorescence intensity (a.u.)
13,GCTCTGTGTGGTTGAGGTGATTGATTGATCTTTGGTTGGACGGAGTCACCTAGTGCAG,9360 fluorescence intensity (a.u.)
14,TCACGGCCCCGCCGACCTCACGTCACCTTTTGTTGCGAGTCGGAGTCACCTAGTGCAG,8110 fluorescence intensity (a.u.)
15,TCGCGCTGTCACCATCGTCGTCCCCGTTACCGAGCGCCGCCGGAGTCACCTAGTGCAG,10200 fluorescence intensity (a.u.)
16,GGCGAGGCGTTTACAGGGTTGCTTCGGCTCGGGGTGGGTTCGGAGTCACCTAGTGCAG,11300 fluorescence intensity (a.u.)
17,ACTCTTACTTTATCAAATCCCATTATAACTATTTATCACTCGGAGTCACCTAGTGCAG,8870 fluorescence intensity (a.u.)
18,TGTTTTCGACGTGGCTCAAAATCAATATCTGGGAGGGATTCGGAGTCACCTAGTGCAG,8060 fluorescence intensity (a.u.)
19,TCCCTTGGCAGTATAGGTGGGTGGTTTTGCTTACGTGGCACGGAGTCACCTAGTGCAG,10600 fluorescence intensity (a.u.)
20,GCTAGGTCTGGTCGCCCCGTGTGTGTATCCGTTGCCCCTGCGGAGTCACCTAGTGCAG,8540 fluorescence intensity (a.u.)
21,CCTTGTACCTCTGTCCAGATTCATTGTACTAAGATATGTCCGGAGTCACCTAGTGCAG,8540 fluorescence intensity (a.u.)

row,Sequence,binding signal
1,GAGGAGGTCATTGACCCGTACTTAATTCTTCTTTTTTTTTCGGAGTCACCTAGTGCAG,10900 fluorescence intensity (a.u.)
2,TATGTGTGTGTGGATGCGCGACAGGGGCGAAATATTAGGGCGGAGTCACCTAGTGCAG,8560 fluorescence intensity (a.u.)
3,TCAGTGTCGGCCGCGATGTCTTTGCAGCTTTGCTGGTTTTCGGAGTCACCTAGTGCAG,8090 fluorescence intensity (a.u.)
4,ATGGTTTTGTTTCCTGTTTCAGTAGTCTTATAGCATGTTTCGGAGTCACCTAGTGCAG,8690 fluorescence intensity (a.u.)
5,TTCATCCGCTCTTTGTTTTTTTTGCGATTGTTTTTTTGGGCGGAGTCACCTAGTGCAG,8320 fluorescence intensity (a.u.)
6,TTAGTTTTCAGCTTTGGTGTTCAGTATATATACCCACCTGCGGAGTCACCTAGTGCAG,8140 fluorescence intensity (a.u.)
7,CATGATGCCATCCTTTCTGCACCTGCCTTCACCGCCATTACGGAGTCACCTAGTGCAG,12500 fluorescence intensity (a.u.)
8,AAGGAAACCATCGACCGTTTGCCGCGCCCCGATTTGAACCCGGAGTCACCTAGTGCAG,8430 fluorescence intensity (a.u.)
9,CCGGGGAAGGCGTTGTTGGGTGGGAGCTTCTCCTGTCGGCCGGAGTCACCTAGTGCAG,12500 fluorescence intensity (a.u.)
10,ACTTTCTCTTTTTCTACGTGCATGTTATTTAAACTACTAACGGAGTCACCTAGTGCAG,9170 fluorescence intensity (a.u.)
11,TTTTCTCACTAATGTTCTATTGCACACATATGCGCTTAGACGGAGTCACCTAGTGCAG,10500 fluorescence intensity (a.u.)
12,CTGATCCATGCACTCCATTTGCAACCTGCGGACCTTTTAGCGGAGTCACCTAGTGCAG,9270 fluorescence intensity (a.u.)
13,ATATATATATATATATATATATATATATATAATCTCTCCTCGGAGTCACCTAGTGCAG,9910 fluorescence intensity (a.u.)
14,GCTATTATACCTGCTCTAATAACTTTGTTTTACTGCTAATCGGAGTCACCTAGTGCAG,8030 fluorescence intensity (a.u.)
15,CAAAGAGGAAAGCCAAACGACCCAACCGCATATCCATTTCCGGAGTCACCTAGTGCAG,10700 fluorescence intensity (a.u.)
16,GAGTTATAAGTGGGAGGAGGGGATAGAAGAAGGCCTAGTTCGGAGTCACCTAGTGCAG,9150 fluorescence intensity (a.u.)
17,GCGTTTTCCAAGTCCAATATCTTGACTTCCCACAGGTGACCGGAGTCACCTAGTGCAG,11400 fluorescence intensity (a.u.)
18,GGAGTTTCTTTTTGTCATACTCTGTTTTTCAGCTTTAGCTCGGAGTCACCTAGTGCAG,9760 fluorescence intensity (a.u.)
19,CCGGCCATCGCTCGCTTTTCTCCGCCGTTGACGACCACTCCGGAGTCACCTAGTGCAG,10400 fluorescence intensity (a.u.)
20,ATTTTGAAGTTGATTTTAGAGTTTGTCGTAGTAGTTTATTCGGAGTCACCTAGTGCAG,8220 fluorescence intensity (a.u.)
21,AACCGCTGCATCTTGCCAAATGCTTCTCACTCCACGCATTCGGAGTCACCTAGTGCAG,11700 fluorescence intensity (a.u.)

# A second format for some results above:
row	Sequence	binding signal
1	GAGGAGGTCATTGACCCGTACTTAATTCTTCTTTTTTTTTCGGAGTCACCTAGTGCAG	10900 fluorescence intensity (a.u.)
2	TATGTGTGTGTGGATGCGCGACAGGGGCGAAATATTAGGGCGGAGTCACCTAGTGCAG	8560 fluorescence intensity (a.u.)
3	TCAGTGTCGGCCGCGATGTCTTTGCAGCTTTGCTGGTTTTCGGAGTCACCTAGTGCAG	8090 fluorescence intensity (a.u.)
4	ATGGTTTTGTTTCCTGTTTCAGTAGTCTTATAGCATGTTTCGGAGTCACCTAGTGCAG	8690 fluorescence intensity (a.u.)
5	TTCATCCGCTCTTTGTTTTTTTTGCGATTGTTTTTTTGGGCGGAGTCACCTAGTGCAG	8320 fluorescence intensity (a.u.)
6	TTAGTTTTCAGCTTTGGTGTTCAGTATATATACCCACCTGCGGAGTCACCTAGTGCAG	8140 fluorescence intensity (a.u.)
